Measurements taken from article PMC6925586.
These are yes or no findings as the source states them, for the method shown. In cells and extracts the contact can be indirect. Some results given as binding are weak or reduced against the parent protein; the word gives no strength. Each block holds one binder with its values, some of them ahead of it.

Protein sequences, listed by entry. Tags and fused reporters are not part of them. Lines headed by an entry give the natural chain unless they say otherwise; changes in a name come on top. Residues count along the entry.
UniProt P15056: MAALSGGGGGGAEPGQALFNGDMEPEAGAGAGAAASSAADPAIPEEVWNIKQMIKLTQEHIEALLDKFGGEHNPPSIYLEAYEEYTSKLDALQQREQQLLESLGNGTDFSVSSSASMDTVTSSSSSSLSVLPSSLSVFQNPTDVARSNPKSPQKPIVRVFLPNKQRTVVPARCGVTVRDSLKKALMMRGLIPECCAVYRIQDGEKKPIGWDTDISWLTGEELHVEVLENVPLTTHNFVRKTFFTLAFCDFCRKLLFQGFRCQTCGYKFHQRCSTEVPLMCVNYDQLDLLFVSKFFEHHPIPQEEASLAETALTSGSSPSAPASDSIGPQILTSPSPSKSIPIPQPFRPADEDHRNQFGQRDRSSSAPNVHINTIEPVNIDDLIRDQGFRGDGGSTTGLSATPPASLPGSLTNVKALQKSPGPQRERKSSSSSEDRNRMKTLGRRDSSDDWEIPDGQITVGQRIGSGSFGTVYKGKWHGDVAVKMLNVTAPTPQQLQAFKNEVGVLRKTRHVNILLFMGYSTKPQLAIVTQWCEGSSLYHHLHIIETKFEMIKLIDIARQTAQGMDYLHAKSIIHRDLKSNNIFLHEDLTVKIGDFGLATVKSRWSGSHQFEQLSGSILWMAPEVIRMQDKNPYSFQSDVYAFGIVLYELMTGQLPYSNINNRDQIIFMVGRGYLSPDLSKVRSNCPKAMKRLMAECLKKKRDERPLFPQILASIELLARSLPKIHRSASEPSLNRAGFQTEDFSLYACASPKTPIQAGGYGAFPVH
UniProt P09055, residues 21-798: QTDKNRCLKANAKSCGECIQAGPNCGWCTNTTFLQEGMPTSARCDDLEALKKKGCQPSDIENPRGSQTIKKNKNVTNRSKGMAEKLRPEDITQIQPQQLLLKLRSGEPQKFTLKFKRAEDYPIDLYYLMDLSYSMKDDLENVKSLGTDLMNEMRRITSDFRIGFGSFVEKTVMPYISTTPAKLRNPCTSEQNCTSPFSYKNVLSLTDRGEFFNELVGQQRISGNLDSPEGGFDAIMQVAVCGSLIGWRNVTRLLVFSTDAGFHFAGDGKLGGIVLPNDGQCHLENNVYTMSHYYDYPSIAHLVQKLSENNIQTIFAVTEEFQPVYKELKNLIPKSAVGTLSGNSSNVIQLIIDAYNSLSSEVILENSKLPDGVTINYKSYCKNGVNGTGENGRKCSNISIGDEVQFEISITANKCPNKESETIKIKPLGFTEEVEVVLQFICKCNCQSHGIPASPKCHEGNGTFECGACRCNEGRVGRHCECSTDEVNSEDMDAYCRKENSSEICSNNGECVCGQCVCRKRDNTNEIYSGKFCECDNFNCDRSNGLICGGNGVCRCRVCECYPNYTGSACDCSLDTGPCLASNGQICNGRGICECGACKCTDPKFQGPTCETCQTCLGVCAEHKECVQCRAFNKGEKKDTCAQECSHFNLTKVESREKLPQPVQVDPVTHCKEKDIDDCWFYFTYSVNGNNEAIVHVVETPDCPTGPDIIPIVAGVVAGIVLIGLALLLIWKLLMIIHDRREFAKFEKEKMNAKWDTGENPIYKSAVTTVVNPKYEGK

Columns and labels:
[1] = target: B-Raf S446D (phosphomimetic, active form) (UniProt P15056); experiment: pull-down; His-pull down from lysates of MCF-7 cells transfected with His6-tagged constructs; non-mutated Raf kinases phosphatase treated; bait not stated
NLRP7 = target: T1, NLRP7 (UniProt Q8WX94); experiment: co-IP; Hec1a endometrial cancer cells
T1 sequence: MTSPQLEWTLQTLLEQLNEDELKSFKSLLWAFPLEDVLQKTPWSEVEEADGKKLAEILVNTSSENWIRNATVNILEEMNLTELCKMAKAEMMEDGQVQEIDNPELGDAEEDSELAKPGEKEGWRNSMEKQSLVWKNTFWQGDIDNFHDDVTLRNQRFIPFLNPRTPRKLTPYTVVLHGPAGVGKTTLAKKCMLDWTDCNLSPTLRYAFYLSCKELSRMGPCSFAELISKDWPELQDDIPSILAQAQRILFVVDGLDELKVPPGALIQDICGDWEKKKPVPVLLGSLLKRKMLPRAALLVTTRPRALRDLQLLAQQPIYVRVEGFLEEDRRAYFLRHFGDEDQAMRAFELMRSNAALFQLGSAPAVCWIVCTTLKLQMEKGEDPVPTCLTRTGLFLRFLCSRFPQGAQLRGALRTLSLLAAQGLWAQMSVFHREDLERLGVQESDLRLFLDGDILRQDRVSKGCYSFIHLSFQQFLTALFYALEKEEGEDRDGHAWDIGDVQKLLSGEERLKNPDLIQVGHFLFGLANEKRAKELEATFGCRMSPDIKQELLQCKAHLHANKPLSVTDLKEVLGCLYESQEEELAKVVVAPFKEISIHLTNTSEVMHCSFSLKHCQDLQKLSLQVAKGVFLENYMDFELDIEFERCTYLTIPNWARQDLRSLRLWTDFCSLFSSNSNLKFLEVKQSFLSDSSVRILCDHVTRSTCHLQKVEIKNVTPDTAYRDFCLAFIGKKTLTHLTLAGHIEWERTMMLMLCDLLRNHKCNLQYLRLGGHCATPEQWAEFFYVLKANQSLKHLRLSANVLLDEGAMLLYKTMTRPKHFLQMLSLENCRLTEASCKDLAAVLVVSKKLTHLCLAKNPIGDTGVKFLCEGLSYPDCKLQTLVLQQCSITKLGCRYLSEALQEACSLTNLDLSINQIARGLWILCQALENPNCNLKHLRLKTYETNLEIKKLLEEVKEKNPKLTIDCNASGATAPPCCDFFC

[2] = target: T2, syndecan-4 (mouse (endogenous in Swiss 3T3)) (UniProt O35988); experiment: co-IP; Swiss 3T3 cells induced to overexpress TG2, treated with the NO donor SNAP for 48 hours; with SNAP less TG2 complex with ITGβ-1 and SDC-4, more with PDGFR-β
T2 sequence: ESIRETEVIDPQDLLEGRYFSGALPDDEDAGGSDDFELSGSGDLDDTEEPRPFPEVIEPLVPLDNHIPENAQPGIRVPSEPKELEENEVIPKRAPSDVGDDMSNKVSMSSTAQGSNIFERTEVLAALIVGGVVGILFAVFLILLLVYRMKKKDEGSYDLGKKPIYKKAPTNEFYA

[3] = target: integrin β-1 (mouse (endogenous in Swiss 3T3)) (UniProt P09055); experiment: as above

binding [1]: binds
B1: BAG-1L (large isoform of Bcl-2 associated athanogene 1) (protein, UniProt Q99933-1 1-345)
chain: MAQRGGARRPRGDRERLGSRLRALRPGREPRQSEPPAQRGPPPSGRPPARSTASGHDRPTRGAAAGARRPRMKKKTRRRSTRSEELTRSEELTLSEEATWSEEATQSEEATQGEEMNRSQEVTRDEESTRSEEVTREEMAAAGLTVTVTHSNEKHDLHVTSQQGSSEPVVQDLAQVVEEVIGVPQSFQKLIFKGKSLKEMETPLSALGIQDGCRVMLIGKKNSPQEEVELKKLKHLEKSVEKIADQLEELNKELTGIQQGFLPKDLQAEALCKLDRRVKATIEQFMKILEEIDTLILPENFKDSRLKRKGLVKKVQAFLAECDTVEQNICQETERLQSTNFALAE

binding (NLRP7): binds
B2: BRAT1 (protein, UniProt Q6PJG6 1-821)
chain: MDPECAQLLPALCAVLVDPRQPVADDTCLEKLLDWFKTVTEGESSVVLLQEHPCLVELLSHVLKVQDLSSGVLSFSLRLAGTFAAQENCFQYLQQGELLPGLFGEPGPLGRATWAVPTVRSGWIQGLRSLAQHPSALRFLADHGAVDTIFSLQGDSSLFVASAASQLLVHVLALSMRGGAEGQPCLPGGDWPACAQKIMDHVEESLCSAATPKVTQALNVLTTTFGRCQSPWTEALWVRLSPRVACLLERDPIPAAHSFVDLLLCVARSPVFSSSDGSLWETVARALSCLGPTHMGPLALGILKLEHCPQALRTQAFQVLLQPLACVLKATVQAPGPPGLLDGTADDATTVDTLLASKSSCAGLLCRTLAHLEELQPLPQRPSPWPQASLLGATVTVLRLCDGSAAPASSVGGHLCGTLAGCVRVQRAALDFLGTLSQGTGPQELVTQALAVLLECLESPGSSPTVLKKAFQATLRWLLSSPKTPGCSDLGPLIPQFLRELFPVLQKRLCHPCWEVRDSALEFLTQLSRHWGGQADFRCALLASEVPQLALQLLQDPESYVRASAVTAMGQLSSQGLHAPTSPEHAEARQSLFLELLHILSVDSEGFPRRAVMQVFTEWLRDGHADAAQDTEQFVATVLQAASRDLDWEVRAQGLELALVFLGQTLGPPRTHCPYAVALPEVAPAQPLTEALRALCHVGLFDFAFCALFDCDRPVAQKSCDLLLFLRDKIASYSSLREARGSPNTASAEATLPRWRAGEQAQPPGDQEPEAVLAMLRSLDLEGLRSTLAESSDHVEKSPQSLLQDMLATGGFLQGDEADCY

binding [2]: binds
binding [3]: binds
B3: tissue transglutaminase (TG2), overexpressed in induced Swiss 3T3 cells (enzyme, UniProt P21980 1-687)
chain: MAEELVLERCDLELETNGRDHHTADLCREKLVVRRGQPFWLTLHFEGRNYEASVDSLTFSVVTGPAPSQEAGTKARFPLRDAVEEGDWTATVVDQQDCTLSLQLTTPANAPIGLYRLSLEASTGYQGSSFVLGHFILLFNAWCPADAVYLDSEEERQEYVLTQQGFIYQGSAKFIKNIPWNFGQFEDGILDICLILLDVNPKFLKNAGRDCSRRSSPVYVGRVVSGMVNCNDDQGVLLGRWDNNYGDGVSPMSWIGSVDILRRWKNHGCQRVKYGQCWVFAAVACTVLRCLGIPTRVVTNYNSAHDQNSNLLIEYFRNEFGEIQGDKSEMIWNFHCWVESWMTRPDLQPGYEGWQALDPTPQEKSEGTYCCGPVPVRAIKEGDLSTKYDAPFVFAEVNADVVDWIQQDDGSVHKSINRSLIVGLKISTKSVGRDEREDITHTYKYPEGSSEEREAFTRANHLNKLAEKEETGMAMRIRVGQSMNMGSDFDVFAHITNNTAEEYVCRLLLCARTVSYNGILGPECGTKYLLNLNLEPFSEKSVPLCILYEKYRDCLTESNLIKVRALLVEPVINSYLLAERDLYLENPEIKIRILGEPKQKRKLVAEVSLQNPLPVALEGCTFTVEGAGLTEEQKTVEIPDPVEAGEEVKVRMDLLPLHMGLHKLVVNFESDKLKAVKGFRNVIIGPA

binding (NLRP7): binds
B4: RalB (protein, UniProt P11234 1-206)
chain: MAANKSKGQSSLALHKVIMVGSGGVGKSALTLQFMYDEFVEDYEPTKADSYRKKVVLDGEEVQIDILDTAGQEDYAAIRDNYFRSGEGFLLVFSITEHESFTATAEFREQILRVKAEEDKIPLLVVGNKSDLEERRQVPVEEARSKAEEWGVQYVETSAKTRANVDKVFFDLMREIRTKKMSENKDKNGKKSSKNKKSFKERCCLL
